Results on 1 molecule are retold here after patent US12540150B1, “Fluorogenic probe using a Mislow-Evans rearrangement for real-time imaging of hydrogen peroxide” (University of Pittsburgh—Of the Commonwealth System of …, priority 2020, dated 2026).

Each structure is given as a SMILES string.

For the series the following is noted: 5% MeCN in 50 mM pH 7.5 HEPES buffer.

Regarding `O=c1ccc2c(-c3ccccc3CO)c3ccc(O)cc3oc-2c1` [Compound 5], the “Calibration curve 1/slope” value came out at 2.54E−06. Also, the “Calibration curve slope (best-fit)” value (200 μL, n=2) is 393445 ± 2396.
